PubChem BioAssay AID1159584, Peter MacCallum Cancer Centre – 2016
The whole screen tested about 18,000 reagents; shown is an unselected part. Not stated in the record: the amount of reagent, the time to read-out.

Aim: 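Knock-downs that harm CDH1-null cells more than parental MCF10A cells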 (primary screen)
System: human MCF10A breast epithelial cells, parental and CDH1-null
Knock-down reagent: siRNA against human genes
Measurement: 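ATP luminescence (CellTiter-Glo) viability per line relative to mean mock wells over all plates, and the ratio of CDH1-null to parental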
Reading the numbers: CDH1-null / parental viability ratio: higher = CDH1-null cells survive relatively better than parental; CDH1-null viability vs mock: higher = more viable CDH1-null cells; parental viability vs mock: higher = more viable parental cells

gene,CDH1-null / parental viability ratio,CDH1-null viability vs mock (fraction of mock),parental viability vs mock (fraction of mock)
ZNF280D (GeneID 54816),0.9,0.86,0.96
CD180 (GeneID 4064),1.34,0.51,0.38
CNBD1 (GeneID 168975),0.95,0.63,0.66
TEP1 (GeneID 7011),0.84,0.62,0.74
CHRNA5 (GeneID 1138),1.14,0.89,0.78
ACSS1 (GeneID 84532),1.16,0.44,0.38
CARD14 (GeneID 79092),1.45,0.84,0.58
RASGEF1C (GeneID 255426),1.18,0.86,0.73
MUC4 (GeneID 4585),1.49,0.82,0.55
DPP8 (GeneID 54878),1.23,0.59,0.48
CARD18 (GeneID 59082),1.1,1.06,0.96
KLHDC2 (GeneID 23588),0.94,0.62,0.66
WFIKKN2 (GeneID 124857),1.31,0.76,0.58
DCAF12L1 (GeneID 139170),0.72,0.58,0.8
GON4L (GeneID 54856),0.88,0.76,0.86
NDP (GeneID 4693),1.11,0.51,0.46
CHPF (GeneID 79586),1.01,0.99,0.98
SLC22A13 (GeneID 9390),1,0.62,0.62
CNN1 (GeneID 1264),1.13,0.7,0.62
STOML1 (GeneID 9399),0.81,0.44,0.54
BRF2 (GeneID 55290),1.09,1.05,0.96
EREG (GeneID 2069),0.73,0.62,0.85
PPP2R5C (GeneID 5527),1.17,0.94,0.8
NQO2 (GeneID 4835),0.86,0.38,0.44
TMEM167B (GeneID 56900),0.9,0.85,0.94
CYB5R4 (GeneID 51167),1.1,0.68,0.62
SYT2 (GeneID 127833),0.79,0.54,0.68
TTC14 (GeneID 151613),0.93,0.82,0.88
JUND (GeneID 3727),0.96,0.74,0.77
CIB2 (GeneID 10518),0.89,0.62,0.7
ANKRD34B (GeneID 340120),1,0.88,0.88
CLDN7 (GeneID 1366),0.79,0.65,0.82
TAAR8 (GeneID 83551),1.21,0.92,0.76
PGBD5 (GeneID 79605),1,0.98,0.98
PTPRU (GeneID 10076),1.23,0.96,0.78
TMEM121 (GeneID 80757),0.84,0.64,0.76
MED21 (GeneID 9412),1.85,1.15,0.62
BAG5 (GeneID 9529),1.16,1.16,1
PPP1R8 (GeneID 5511),1.63,0.62,0.38
SSTR2 (GeneID 6752),0.82,0.88,1.07
EFS (GeneID 10278),0.97,0.72,0.74
DDX56 (GeneID 54606),1.05,0.86,0.82
FADD (GeneID 8772),0.95,0.88,0.93
RRM1 (GeneID 6240),0.89,0.48,0.54
CXCR3 (GeneID 2833),0.75,0.61,0.81
PIK3R5 (GeneID 23533),0.86,0.65,0.76
STK26 (GeneID 51765),0.91,0.95,1.04
WDR5 (GeneID 11091),1.17,0.9,0.77
ADRB2 (GeneID 154),1.55,0.9,0.58
SERF2 (GeneID 10169),0.93,0.52,0.56
CHD7 (GeneID 55636),0.98,0.82,0.84
BOD1L1 (GeneID 259282),0.85,0.7,0.82
NFYB (GeneID 4801),0.94,0.83,0.88
PQBP1 (GeneID 10084),0.98,0.82,0.84
RBM46 (GeneID 166863),1.06,1,0.94
DPF2 (GeneID 5977),0.93,0.68,0.73
FCRLB (GeneID 127943),0.94,0.85,0.9
FAM151B (GeneID 167555),1.01,0.76,0.75
TSPAN16 (GeneID 26526),0.95,0.9,0.95
ZNF430 (GeneID 80264),0.9,0.82,0.91
MLXIP (GeneID 22877),0.91,0.96,1.06
CRYAA (GeneID 1409),1.75,0.96,0.55
KRTAP21-2 (GeneID 337978),0.78,0.67,0.86
BOLA2 (GeneID 552900),1.13,0.76,0.67
BEX1 (GeneID 55859),0.99,1.02,1.03
RRP1 (GeneID 8568),0.92,0.66,0.72
FAM124A (GeneID 220108),0.87,0.82,0.94
SLC22A12 (GeneID 116085),1.11,1.08,0.97
FAM167A (GeneID 83648),1.07,0.88,0.82
LRRC28 (GeneID 123355),1.11,0.8,0.72
C1QTNF5 (GeneID 114902),0.88,0.5,0.57
UBALD1 (GeneID 124402),1.07,0.62,0.58
GNAI2 (GeneID 2771),1.07,0.91,0.85
RHOC (GeneID 389),0.68,0.64,0.94
SLC2A7 (GeneID 155184),1.06,0.5,0.47
PTPRJ (GeneID 5795),1.54,0.8,0.52
KCNH6 (GeneID 81033),1.39,0.92,0.66
TGM1 (GeneID 7051),0.94,0.66,0.7
PCBD1 (GeneID 5092),0.88,0.81,0.92
CREB3 (GeneID 10488),1.12,0.85,0.76
TMED3 (GeneID 23423),1.12,0.45,0.4
TNIP2 (GeneID 79155),1.07,1.14,1.07
CEP131 (GeneID 22994),0.92,0.85,0.92
TGM7 (GeneID 116179),0.76,0.62,0.82
PUS1 (GeneID 80324),1.34,0.82,0.61
ARHGDIB (GeneID 397),1.11,1.18,1.06
TCIRG1 (GeneID 10312),1.05,0.63,0.6
